Source: the supplement of paper PMC6078165
Values are relative to the signal before dosing, not to a vehicle control; the signal also falls without drug.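 Cells used are triple-negative breast cancer lines, either basal-like or mesenchymal-like, grown in the absence of fibroblasts. Lower red signal means mitochondrial integrity is lost, a surrogate for apoptosis.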

Columns and labels:
Assay in all cases: relative JC-1 red fluorescence (viability) vs pre-drug, monoculture (fraction); higher = more viable cancer cells
Conditions in all cases: coculture fibroblast: none (monoculture)
[1] = test system: BT20
Description: (§1)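 JC-1 labelled TNBC cells grown in monoculture (density kept equal with unlabelled cancer cells) in 384-well plates in FluoroBrite medium, treated with one of 42 anticancer drugs at 0.1, 1, 10 or 100 uM. JC-1 red fluorescence (mitochondrial integrity, surrogate of apoptotic death) was read by plate reader every 8 h for 72 h. Values are normalised to each well's pre-drug value, with background from alamethicin. The stock of one drug was tenfold lower, so its dose labels may be too high. Monoculture values are repeated alongside each fibroblast plate and are averaged here.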

[2] = test system: MDAMB231
Description: as §1

[3] = test system: MDAMB468
Description: as §1

[4] = test system: MDAMB436
Description: as §1

CC(=O)O[C@@]12CO[C@@H]1C[C@H](O)[C@@]1(C)C(=O)[C@H](O)C3=C(C)[C@@H](OC(=O)[C@H](O)[C@@H](NC(=O)OC(C)(C)C)c4ccccc4)C[C@@](O)([C@@H](OC(=O)c4ccccc4)[C@H]21)C3(C)C [Docetaxel]
relative JC-1 red fluorescence
Conditions	8 h	16 h	24 h	32 h	40 h	48 h	56 h	64 h	72 h
[1], 0.1 µM	0.971	0.867	0.765	0.657	0.585	0.53	0.487	0.454	0.432
[1], 1 µM	0.93432	0.8747	0.788	0.709	0.654	0.613	0.568	0.561	0.542
[1], 10 µM	0.955	0.841	0.806	0.735	0.682	0.6481	0.613	0.592	0.578
[1], 100 µM	0.9236	0.8649	0.801	0.719	0.682	0.658	0.629	0.617	0.607
[2], 0.1 µM	0.815	0.7712	0.716	0.665	0.633	0.632	0.625	0.658	0.67
[2], 1 µM	0.735	0.725	0.628	0.595	0.548	0.517	0.5	0.533	0.529
[2], 10 µM	0.809	0.735	0.82	0.718	0.697	0.716	0.708	0.759	0.77
[2], 100 µM	0.588	0.557	0.506	0.492	0.494	0.51	0.513	0.555	0.557
[3], 0.1 µM	0.912	0.8009	0.721	0.651	0.589	0.57	0.531	0.511	0.505
[3], 1 µM	0.893	0.829	0.783	0.69	0.65	0.607	0.572	0.532	0.517
[3], 10 µM	0.92	0.844	0.836	0.763	0.722	0.705	0.658	0.641	0.626
[3], 100 µM	0.8645	0.746	0.6854	0.583	0.558	0.547	0.523	0.504	0.503
[4], 0.1 µM	0.8591	0.703	0.726	0.681	0.662	0.656	0.656	0.664	0.669
[4], 1 µM	0.85114	0.785	0.785	0.7483	0.73	0.711	0.695	0.679	0.675
[4], 10 µM	0.911	0.8595	0.887	0.857	0.856	0.87	0.873	0.877	0.885
[4], 100 µM	0.84418	0.7783	0.77	0.729	0.713	0.691	0.672	0.656	0.653

CC(=O)c1c(C)c2cnc(Nc3ccc(N4CCNCC4)cn3)nc2n(C2CCCC2)c1=O [Palbociclib]
relative JC-1 red fluorescence
Conditions	8 h	16 h	24 h	32 h	40 h	48 h	56 h	64 h	72 h
[1], 0.1 µM	0.9443	0.86256	0.7924	0.736	0.7052	0.6849	0.6558	0.637	0.62114
[1], 1 µM	0.9394	0.914	0.868	0.816	0.7684	0.768	0.723	0.704	0.692
[1], 10 µM	0.877	0.801	0.879	0.904	0.768	0.877	0.7466	0.808	0.864
[1], 100 µM	0.886	0.579	0.36	0.294	0.263	0.24	0.216	0.2	0.184
[2], 0.1 µM	0.7297	0.7056	0.579	0.605	0.55789	0.5442	0.505	0.512	0.503
[2], 1 µM	0.798	0.792	0.704	0.675	0.62	0.611	0.579	0.587	0.578
[2], 10 µM	0.9117	0.872	0.89323	0.942	0.9066	0.823	0.925	0.928	0.92
[2], 100 µM	0.646	0.55	0.485	0.408	0.37	0.326	0.264	0.257	0.235
[3], 0.1 µM	0.8906	0.8497	0.79	0.696	0.637	0.607	0.581	0.557	0.539
[3], 1 µM	0.9065	0.853	0.814	0.748	0.7	0.675	0.646	0.624	0.613
[3], 10 µM	0.9671	0.9776	0.911	0.81	0.895	0.825	0.702	0.619	0.552
[3], 100 µM	0.617	0.349	0.278	0.23	0.2	0.187	0.164	0.15	0.137
[4], 0.1 µM	0.8675	0.83	0.794	0.744	0.736	0.724	0.725	0.73	0.731
[4], 1 µM	0.886	0.788	0.823	0.783	0.771	0.778	0.768	0.76	0.766
[4], 10 µM	0.913	0.897	0.909	0.8503	0.848	0.8354	0.8403	0.834	0.823
[4], 100 µM	0.834	0.656	0.606	0.507	0.452	0.419	0.391	0.37	0.349
